Results from the supplement of paper PMC11546906.
Structures can show the parent of a compound that is named as a salt. The list shows a part of the results. Single values are uncertain here, since repeats match poorly.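 A screen tested FDA-approved drugs combined with one-eighth-MIC colistin against a clinical mcr-1-positive, multidrug-resistant E. coli isolate, measuring OD600 at 24 h. Controls were untreated bacteria (growth) and broth alone (blank). An OD600 under 0.2 marked a combination as active.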

Test system: Escherichia coli 42 (mcr-1-positive clinical isolate)
Test: OD600 after 24 h growth with compound plus colistin (absorbance units (OD600)); higher = more bacterial growth (less inhibition)
Settings: first compound 25 µM; colistin concentration 0.5 ug/mL; incubation time 24 h; 37 °C

SMILES | OD600
COc1ccccc1OCCNCC(O)COc1cccc2[nH]c3ccccc3c12 (stereo not given) [Carvedilol phosphate hemihydrate] + CCC(C)CCCC(=O)N[C@@H](CCN)C(=O)N[C@H](C(=O)N[C@@H](CCN)C(=O)N[C@H]1CCNC(=O)[C@H]([C@@H](C)O)NC(=O)[C@H](CCN)NC(=O)[C@H](CCN)NC(=O)[C@H](CC(C)C)NC(=O)[C@@H](CC(C)C)NC(=O)[C@H](CCN)NC1=O)[C@@H](C)O [colistin] | inactive: 0.764
OC(CNCC(O)C1CCc2cc(F)ccc2O1)C1CCc2cc(F)ccc2O1 (stereo not given) [Nebivolol hydrochloride] + CCC(C)CCCC(=O)N[C@@H](CCN)C(=O)N[C@H](C(=O)N[C@@H](CCN)C(=O)N[C@H]1CCNC(=O)[C@H]([C@@H](C)O)NC(=O)[C@H](CCN)NC(=O)[C@H](CCN)NC(=O)[C@H](CC(C)C)NC(=O)[C@@H](CC(C)C)NC(=O)[C@H](CCN)NC1=O)[C@@H](C)O [colistin] | inactive: 0.841
O=C(NC[C@H]1CN(c2ccc(N3CCOCC3=O)cc2)C(=O)O1)c1ccc(Cl)s1 [Rivaroxaban] + CCC(C)CCCC(=O)N[C@@H](CCN)C(=O)N[C@H](C(=O)N[C@@H](CCN)C(=O)N[C@H]1CCNC(=O)[C@H]([C@@H](C)O)NC(=O)[C@H](CCN)NC(=O)[C@H](CCN)NC(=O)[C@H](CC(C)C)NC(=O)[C@@H](CC(C)C)NC(=O)[C@H](CCN)NC1=O)[C@@H](C)O [colistin] | inactive: 1.06
Cc1nc(-c2ccc(OCC(C)C)c(C#N)c2)sc1C(=O)O [Febuxostat] + CCC(C)CCCC(=O)N[C@@H](CCN)C(=O)N[C@H](C(=O)N[C@@H](CCN)C(=O)N[C@H]1CCNC(=O)[C@H]([C@@H](C)O)NC(=O)[C@H](CCN)NC(=O)[C@H](CCN)NC(=O)[C@H](CC(C)C)NC(=O)[C@@H](CC(C)C)NC(=O)[C@H](CCN)NC1=O)[C@@H](C)O [colistin] | inactive: 1.02
CN1CCCN=C1/C=C/c1cccc(O)c1 [Oxantel Pamoate] + CCC(C)CCCC(=O)N[C@@H](CCN)C(=O)N[C@H](C(=O)N[C@@H](CCN)C(=O)N[C@H]1CCNC(=O)[C@H]([C@@H](C)O)NC(=O)[C@H](CCN)NC(=O)[C@H](CCN)NC(=O)[C@H](CC(C)C)NC(=O)[C@@H](CC(C)C)NC(=O)[C@H](CCN)NC1=O)[C@@H](C)O [colistin] | inactive: 0.994
CN(C)CCc1c[nH]c2ccc(C[C@H]3COC(=O)N3)cc12 [Zolmitriptan] + CCC(C)CCCC(=O)N[C@@H](CCN)C(=O)N[C@H](C(=O)N[C@@H](CCN)C(=O)N[C@H]1CCNC(=O)[C@H]([C@@H](C)O)NC(=O)[C@H](CCN)NC(=O)[C@H](CCN)NC(=O)[C@H](CC(C)C)NC(=O)[C@@H](CC(C)C)NC(=O)[C@H](CCN)NC1=O)[C@@H](C)O [colistin] | inactive: 1.13
CN1C(C(=O)Nc2ccccn2)=C(O)c2ccccc2S1(=O)=O [Piroxicam] + CCC(C)CCCC(=O)N[C@@H](CCN)C(=O)N[C@H](C(=O)N[C@@H](CCN)C(=O)N[C@H]1CCNC(=O)[C@H]([C@@H](C)O)NC(=O)[C@H](CCN)NC(=O)[C@H](CCN)NC(=O)[C@H](CC(C)C)NC(=O)[C@@H](CC(C)C)NC(=O)[C@H](CCN)NC1=O)[C@@H](C)O [colistin] | inactive: 1.14
CC(C)c1nc(CN(C)C(=O)N[C@H](C(=O)N[C@@H](Cc2ccccc2)C[C@H](O)[C@H](Cc2ccccc2)NC(=O)OCc2cncs2)C(C)C)cs1 [Ritonavir] + CCC(C)CCCC(=O)N[C@@H](CCN)C(=O)N[C@H](C(=O)N[C@@H](CCN)C(=O)N[C@H]1CCNC(=O)[C@H]([C@@H](C)O)NC(=O)[C@H](CCN)NC(=O)[C@H](CCN)NC(=O)[C@H](CC(C)C)NC(=O)[C@@H](CC(C)C)NC(=O)[C@H](CCN)NC1=O)[C@@H](C)O [colistin] | inactive: 0.914
CC1=C(CC(=O)O)c2cc(F)ccc2/C1=C\c1ccc([S+](C)[O-])cc1 (stereo not given) [Sulindac] + CCC(C)CCCC(=O)N[C@@H](CCN)C(=O)N[C@H](C(=O)N[C@@H](CCN)C(=O)N[C@H]1CCNC(=O)[C@H]([C@@H](C)O)NC(=O)[C@H](CCN)NC(=O)[C@H](CCN)NC(=O)[C@H](CC(C)C)NC(=O)[C@@H](CC(C)C)NC(=O)[C@H](CCN)NC1=O)[C@@H](C)O [colistin] | inactive: 1.02
NC(=O)N/N=C/c1ccc([N+](=O)[O-])o1 [Nitrofurazone] + CCC(C)CCCC(=O)N[C@@H](CCN)C(=O)N[C@H](C(=O)N[C@@H](CCN)C(=O)N[C@H]1CCNC(=O)[C@H]([C@@H](C)O)NC(=O)[C@H](CCN)NC(=O)[C@H](CCN)NC(=O)[C@H](CC(C)C)NC(=O)[C@@H](CC(C)C)NC(=O)[C@H](CCN)NC1=O)[C@@H](C)O [colistin] | inactive: 1.1

Look-ups from the list.
OD600 with Cc1nc(-c2ccc(OCC(C)C)c(C#N)c2)sc1C(=O)O [Febuxostat] + CCC(C)CCCC(=O)N[C@@H](CCN)C(=O)N[C@H](C(=O)N[C@@H](CCN)C(=O)N[C@H]1CCNC(=O)[C@H]([C@@H](C)O)NC(=O)[C@H](CCN)NC(=O)[C@H](CCN)NC(=O)[C@H](CC(C)C)NC(=O)[C@@H](CC(C)C)NC(=O)[C@H](CCN)NC1=O)[C@@H](C)O [colistin] is entered as inactive: 1.02
OD600 with COc1ccccc1OCCNCC(O)COc1cccc2[nH]c3ccccc3c12 (stereo not given) [Carvedilol phosphate hemihydrate] + CCC(C)CCCC(=O)N[C@@H](CCN)C(=O)N[C@H](C(=O)N[C@@H](CCN)C(=O)N[C@H]1CCNC(=O)[C@H]([C@@H](C)O)NC(=O)[C@H](CCN)NC(=O)[C@H](CCN)NC(=O)[C@H](CC(C)C)NC(=O)[C@@H](CC(C)C)NC(=O)[C@H](CCN)NC1=O)[C@@H](C)O [colistin] is entered as inactive: 0.764
